System: glutathione (GSH)
Experiment: BSO/MCB probe dosage optimisation and verification of MCB specificity to glutathione
Type: cell-based, mice
Experimental: Embryos were cultured in groups of 10 in 20 ul drops of media under paraffin oil (Ovoil, Vitrolife) in 6% CO2, 20% O2 74% N2 at 37° C. in a humidified multi gas incubator (Sanyo MCOK-5M[RC], Japan). Half of the embryos were allocated to the control group and the other half to the treatment group. Control group embryos were cultured in G-1™ medium (G-1™ with HSA-Solution™, Vitrolife) […]. Treatment group embryos were likewise cultured with the optimal triple antioxidant dose supplemented in the G-1™ medium (as determined in Example 2).
Immediately after collection, pronucleate control embryos were incubated in G-1™ medium spiked with BSO at doses of 0, 50, 100, 200, 400, 800, 1600 μM for 4 hours at 6% CO2, 20% O2 74% N2 at 37° C. Embryos were rinsed thoroughly in G-1™ with HSA-Solution™ media and placed individually in 2 μl drops of GMOPS with HSA-Solution™ (G-MOPS™ Plus, Vitrolife AB, Sweden) made on glass bottom dishes (Fluorodish, Coherent Scientific, Australia) and overlayed with paraffin oil (Ovoil, Vitrolife) for fluorescence imaging. Optimal dosage was determined by recording the fluorescence at 360±40 nm/460±40 nm excitation/emission wavelengths under a fluorescence microscope (Nikon Eclipse TS100). Results were calculated by subtracting the values of blank (embryos with no BSO exposure) and basal levels of the culture media from the fluorescence recorded. […]

CCCCS(=N)(=O)CCC(N)C(=O)O (centres unmarked) [BSO, buthionine sulfoximine]
Optimal probe dose (4 hours in G-1 medium): 200 µM

Cc1c(C)n2c(CCl)c(C)c(=O)n2c1=O [MCB, monochlorobimane]
Optimal probe dose (15 minutes in G-1 medium): 10 μM/ml
